# The full ranking holds about 33,000 sequences; the median of “E-score (-0.5 to 0.5)” is about -8e-05, and the highest 2% start at about 0.23. Some of the results follow.
# Molecular target: T1, Nrg2 (UniProt P38082)
# T1 sequence: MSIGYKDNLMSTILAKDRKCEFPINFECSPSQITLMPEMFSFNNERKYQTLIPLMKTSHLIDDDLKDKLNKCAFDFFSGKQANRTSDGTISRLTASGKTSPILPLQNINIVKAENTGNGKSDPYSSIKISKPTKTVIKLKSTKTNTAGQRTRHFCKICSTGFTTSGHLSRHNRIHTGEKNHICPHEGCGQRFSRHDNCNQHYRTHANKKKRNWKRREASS
# Test: PBM E-score (8-mer binding enrichment) (E-score (-0.5 to 0.5)); higher = stronger / more preferred TF binding
# Conditions: protein concentration: 100 nM; construct: GST-full length
# In short: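 Masliner-normalised scans of fluorescent anti-GST signal were the basis for scoring. That signal came from GST-tagged yeast transcription factors applied at about 100-200 nM to double-stranded universal all-10-mer Agilent arrays on fresh or once-stripped slides. Each ungapped eight-base word, pooled with its reverse complement, received an E-score from the Universal PBM Analysis Suite.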
row,Sequence,PBM E-score
1,CGGCCATA,-0.123
2,ATAGCACC,-0.162
3,CGCCATAG,0.0758
4,CAGAGTCG,0.0169
5,CAGCATAG,-0.0656
6,ATGTAAAG,0.0456
7,AGGTCTTA,-0.131
8,CGTCGGCC,0.0775
9,ATGACAAG,0.142
10,GACTTGGC,-0.202
11,GAGCCTTA,-0.167
12,GTACGTAC,-0.159
13,GCAAAACA,0.136
14,GTCATTCA,0.102
15,AATACTAT,0.0268
16,CCCTCGAC,0.0444
17,ACCCGTAA,0.0728
18,CGCGGGGA,0.165
19,AAGATATA,0.114
20,ATCTATCA,-0.036
21,CCTGTGTA,0.111
22,CTGCAACA,0.0107
23,AGAGCAAA,0.0248
24,CCAAGAGG,-0.00579
25,AGGGTGTC,0.151

row,Sequence,PBM E-score
1,CAGGAGAG,-0.104
2,AGAGATAC,0.186
3,AAGGAGGC,-0.154
4,ATAGAATA,0.156
5,CAAGACCA,-0.177
6,CCCCCTCG,-0.32
7,GTCTGCTA,0.0308
8,ATTATGGG,-0.00822
9,CATGACGC,-0.0369
10,ACTTCTGC,-0.00759
11,ATATACTA,0.307
12,CCTGCCTA,0.0395
13,AGTTGTTG,0.0587
14,CAGAGCGG,-0.069
15,CCCGTGTA,-0.0764
16,CCTGAGAA,0.00042
17,TCAGTCGA,0.0823
18,AAGAAACG,-0.00869
19,GGCTACCC,-0.112
20,GGATCCGA,0.0229
21,ACCCGGAC,-0.235
22,AAAAAACA,0.214
23,ATTATCTA,0.155
24,GTTATGCA,-0.0185
25,GACATGTC,-0.225

# Part of the list above, bar-delimited:
row | Sequence | PBM E-score
20 | GGATCCGA | 0.0229
21 | ACCCGGAC | -0.235
22 | AAAAAACA | 0.214

# Next entries:

row,Sequence,PBM E-score
1,GAAGGCGA,-0.139
2,ATCATACC,0.00359
3,AAAAGAGC,-0.00644
4,CGTAACTA,-0.117
5,ATGTAGGA,-0.153
6,CGGTTTTC,0.0834
7,ATCGACAT,0.0675
8,AGTATATC,0.107
9,CGTTCGGC,-0.0354
10,CGCATTAC,0.0587
11,GCTGCACC,-0.0621
12,GAGGCCGC,-0.239
13,AACTGTAA,0.155
14,CCCGGAAC,-0.157
15,ATCTCATA,-0.0186
16,AGAGCTTA,-0.0581
17,CTACCATC,-0.126
18,CGGACCCG,0.0458
19,CGGGCTTA,-0.173
20,ACCTCATC,0.0441
21,ACCTTCAC,-0.041
22,ATATTATC,0.0409
23,GCAAGGGA,0.109
24,GATTACAC,-0.0597
25,AGCGGGTG,-0.0715

row,Sequence,PBM E-score
1,CATAGCCA,0.0564
2,AGTCGCTA,-0.114
3,CTAGGCCC,-0.096
4,CAAGTCCC,-0.112
5,GTGGGACA,-0.0713
6,ATGTCCAC,-0.0219
7,ATCCTATA,0.12
8,CACTGAAA,0.0555
9,GACCGTAC,-0.266
10,CGATAATC,-0.071
11,ACGTCACC,-0.00153
12,CTCGCTCC,0.0225
13,AAATCAAC,0.0408
14,ACACCAGG,-0.118
15,ACGCGGGC,0.125
16,AATACGCA,0.153
17,AGGTATTC,-0.0326
18,GTCGCCTA,-0.0434
19,AGCGAGCA,0.00354
20,CCACGGAC,-0.156
21,CGAGCCAA,-0.0843
22,ACGGTCCA,-0.162
23,CCCCGCTC,-0.215
24,GCTATATA,0.0573
25,CGATCAAC,-0.0656

# In a second layout: entries from further up
row | Sequence | PBM E-score
15 | ACGCGGGC | 0.125
16 | AATACGCA | 0.153
17 | AGGTATTC | -0.0326
18 | GTCGCCTA | -0.0434
19 | AGCGAGCA | 0.00354
20 | CCACGGAC | -0.156

# Continued:

row,Sequence,PBM E-score
1,ACCGCCCC,0.0639
2,ACATCACG,-0.061
3,TACACTAA,0.0945
4,ATGAGATG,0.0856
5,CTTTGCTC,-0.0234
6,AAAGAGCC,-0.174
7,ATGGCCTG,-0.0422
8,AGCTTAAG,-0.0282
9,TAGCTGAA,0.0402
10,GTCTGCAC,-0.0491
11,AGTTCCCG,0.0394
12,AGCAAGAA,0.0497
13,AACTAGGC,-0.00972
14,CGCTTCCG,-0.0404
15,CAGTCCTA,-0.223
16,ACCGGACT,-0.131
17,GAGCCAAC,-0.0523
18,GAGTTGAC,-0.0655
19,CAGCGATG,-0.0877
20,CATCAGAA,0.0294
21,AGGGCTGC,-0.0224
22,GAAACCCC,0.00642
23,ATTTCGGA,0.074
24,GTGTGTCA,0.0714
25,GGGTTTGA,0.218

row,Sequence,PBM E-score
1,GGACACGA,-0.191
2,ATAACAAT,0.0175
3,TAAGGGGA,-0.00292
4,ACCCCCAC,-0.388
5,ATCATCGG,-0.0826
6,GCGCGTTA,0.213
7,AGCGTCAA,-0.0325
8,AGAGTCAT,-0.306
9,ACTTCGAA,0.0124
10,ATTGACGC,0.0308
11,CTCCCTAC,-0.214
12,GGGCGCAC,-0.121
13,CGGATAAC,0.05
14,GAACCGAC,-0.0162
15,CAGTATCC,0.0489
16,ATAAAATG,0.0895
17,AATATTAC,0.14
18,ACTCTGGC,0.0403
19,CGTGGTCA,0.0268
20,AGCGGGAT,-0.0409
21,AAGGACCA,-0.0191
22,ATATCGCA,-0.0927
23,GATATGGC,-0.112
24,ATTTCATG,-0.00641
25,ATTGAGTA,0.22

row,Sequence,PBM E-score
1,AGACAGAA,0.159
2,CTGTTGGA,0.0236
3,CGAAATGA,0.127
4,CAGAAGGC,-0.134
5,CCGGGAGG,-0.175
6,GGAGACTA,-0.126
7,ACAGATGG,-0.0336
8,ACACGTGT,-0.123
9,ATGGTCGA,-0.144
10,AGGATGAC,-0.187
11,GAACGTCA,-0.129
12,CCGCCAGC,-0.127
13,GGAAGAGA,-0.0957
14,CGGTATTA,-0.0616
15,GTGAAGAA,0.0239
16,ATATCTCC,0.251
17,ATGGACAG,-0.0815
18,AGGTGCAA,-0.00317
19,GTCGAGAA,0.0187
20,CCCCAAAG,-0.0786
21,GGAAATCA,-0.049
22,CAACGAAG,-0.137

# From the supplement of paper PMC3334620
